{"source": "PubChem BioAssay AID504764, Drosophila RNAi Screening Center – 2011", "test": "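Genes whose knock-down alters Notch-dependent transcription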 (primary screen)", "cell system": "Drosophila Kc167 cells", "reagent": "long dsRNA against Drosophila genes", "time to read-out": "about 5 days (4 days dsRNA, then 24 h after transfection)", "conditions": "transfection of constitutively active membrane-tethered Notch lacking the extracellular domain, read 24 h later", "measurement": "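Light from a Notch-responsive E(spl)m3 luciferase reporter under active Notch, with control-promoter and no-Notch reporter wells to normalise; raw counts from paired wells a and b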", "scale": "induced reporter light, run 1, well a and induced reporter light, run 1, well b: higher = more light from the Notch target reporter with active Notch; control promoter light, run 1, well a and control promoter light, run 1, well b: higher = more light from the viral control promoter (cell number, transfection, viability); uninduced reporter light, run 1, well a: higher = more light from the Notch target reporter without active Notch", "rule for the call": "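Wells with low control signal or poorly matching duplicates excluded; duplicates averaged; per source plate, z beyond ±2 for induced/control log2 ratio or beyond ±1.8 for induced/uninduced marks a hit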", "meaning of the calls": "active = modifier hit (raised or lowered Notch signal); inactive = not a hit", "note": "In all, the deposit lists about 22,000 reagents; this is an unselected part of those with a known target gene and a result. In the full data, 403 (1.9%) were called active. 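Unnormalised raw counts per well; ratio z-scores behind the hit calls and whether each hit raises or lowers signal are not deposited.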 No sequences are given here. The record does not give: the amount of reagent."}
{"gene": "Mccc1 (GeneID 43750)", "DRSC id": "DRSC15417", "induced reporter light, run 1, well a": 2.64e5, "induced reporter light, run 1, well b": 1.93e5, "control promoter light, run 1, well a": 2.66e5, "control promoter light, run 1, well b": 2.53e5, "uninduced reporter light, run 1, well a": 12630, "activity call": "inactive"}
{"gene": "CG30496 (GeneID 246652)", "DRSC id": "DRSC06805", "induced reporter light, run 1, well a": 2.75e5, "induced reporter light, run 1, well b": 2.34e5, "control promoter light, run 1, well a": 2.34e5, "control promoter light, run 1, well b": 2.70e5, "uninduced reporter light, run 1, well a": 15330, "activity call": "inactive"}
{"gene": "kri (GeneID 38655)", "DRSC id": "DRSC10515", "induced reporter light, run 1, well a": 82955, "induced reporter light, run 1, well b": 1.10e5, "control promoter light, run 1, well a": 94115, "control promoter light, run 1, well b": 35895, "uninduced reporter light, run 1, well a": 11595, "activity call": "inactive"}
{"gene": "Osi4 (GeneID 40758)", "DRSC id": "DRSC12134", "induced reporter light, run 1, well a": 57270, "induced reporter light, run 1, well b": 66855, "control promoter light, run 1, well a": 76160, "control promoter light, run 1, well b": 57025, "uninduced reporter light, run 1, well a": 4570, "activity call": "inactive"}

Quoted from the listing, 2 entries:
{"gene": "CG30496 (GeneID 246652)", "DRSC id": "DRSC06805", "induced reporter light, run 1, well a": 2.75e5, "induced reporter light, run 1, well b": 2.34e5, "control promoter light, run 1, well a": 2.34e5, "control promoter light, run 1, well b": 2.70e5, "uninduced reporter light, run 1, well a": 15330, "activity call": "inactive"}
{"gene": "kri (GeneID 38655)", "DRSC id": "DRSC10515", "induced reporter light, run 1, well a": 82955, "induced reporter light, run 1, well b": 1.10e5, "control promoter light, run 1, well a": 94115, "control promoter light, run 1, well b": 35895, "uninduced reporter light, run 1, well a": 11595, "activity call": "inactive"}

The list goes on.
{"gene": "Skp2 (GeneID 40548)", "DRSC id": "DRSC12329", "induced reporter light, run 1, well a": 1.33e5, "induced reporter light, run 1, well b": 1.44e5, "control promoter light, run 1, well a": 1.18e5, "control promoter light, run 1, well b": 1.25e5, "uninduced reporter light, run 1, well a": 8590, "activity call": "inactive"}
{"gene": "lig (GeneID 35771)", "DRSC id": "DRSC07246", "induced reporter light, run 1, well a": 73770, "induced reporter light, run 1, well b": 72425, "control promoter light, run 1, well a": 66950, "control promoter light, run 1, well b": 85005, "uninduced reporter light, run 1, well a": 9050, "activity call": "inactive"}
{"gene": "lig (GeneID 35771)", "DRSC id": "DRSC07247", "induced reporter light, run 1, well a": 1.67e5, "induced reporter light, run 1, well b": 1.83e5, "control promoter light, run 1, well a": 1.40e5, "control promoter light, run 1, well b": 1.18e5, "uninduced reporter light, run 1, well a": 26215, "activity call": "inactive"}
{"gene": "CG6462 (GeneID 38681)", "DRSC id": "DRSC10641", "induced reporter light, run 1, well a": 2.10e5, "induced reporter light, run 1, well b": 1.68e5, "control promoter light, run 1, well a": 2.03e5, "control promoter light, run 1, well b": 1.84e5, "uninduced reporter light, run 1, well a": 11882, "activity call": "inactive"}
{"gene": "shg (GeneID 37386)", "DRSC id": "DRSC04714", "induced reporter light, run 1, well a": 2.19e5, "induced reporter light, run 1, well b": 1.86e5, "control promoter light, run 1, well a": 1.71e5, "control promoter light, run 1, well b": 1.99e5, "uninduced reporter light, run 1, well a": 16255, "activity call": "inactive"}
{"gene": "CG12493 (GeneID 38575)", "DRSC id": "DRSC08279", "induced reporter light, run 1, well a": 2.15e5, "induced reporter light, run 1, well b": 2.35e5, "control promoter light, run 1, well a": 1.95e5, "control promoter light, run 1, well b": 1.36e5, "uninduced reporter light, run 1, well a": 9335, "activity call": "inactive"}
{"gene": "CG14691 (GeneID 41287)", "DRSC id": "DRSC14914", "induced reporter light, run 1, well a": 69895, "induced reporter light, run 1, well b": 73770, "control promoter light, run 1, well a": 68480, "control promoter light, run 1, well b": 50780, "uninduced reporter light, run 1, well a": 3520, "activity call": "inactive"}
{"gene": "CG13531 (GeneID 37627)", "DRSC id": "DRSC04173", "induced reporter light, run 1, well a": 1.61e5, "induced reporter light, run 1, well b": 1.36e5, "control promoter light, run 1, well a": 1.38e5, "control promoter light, run 1, well b": 1.53e5, "uninduced reporter light, run 1, well a": 9290, "activity call": "inactive"}
